# Assay results published in patent US11031562B2, “Metal complexes” (Merck Patent GmbH, priority 2015, dated 2021).
# Experiment: Solution-processed OLEDs from soluble functional materials: characterisation
# Conditions: solution-processed OLED; for LD50 (h) 1000 cd/m^2: lifetime to 50% of starting luminance 1000 cd/m^2
# [1] = device type 1 (single emitter), at 1000 cd/m^2
# [2] = device type 2, second emitter together with Ir1, at 1000 cd/m^2
# [3] = device type 2, second emitter together with Ir1
# [4] = device type 2, second emitter together with Ir(L315), at 1000 cd/m^2
# [5] = device type 2, second emitter together with Ir110, at 1000 cd/m^2
# [6] = device type 2, second emitter together with Ir110
# [7] = device type 2, second emitter together with Ir111, at 1000 cd/m^2
smiles,measurement,setting,value
"c1ccc(-c2cc(-c3ccccc3)cc(-c3cccc(-c4cc[c]5c(c4)-c4cccc[n+]4[Ir-3]546([c]5ccc(-c7cccc(-c8cc(-c9ccccc9)cc(-c9ccccc9)c8)c7)cc5-c5cccc[n+]54)[c]4ccc(-c5cccc(-c7cc(-c8ccccc8)cc(-c8ccccc8)c7)c5)cc4-c4cccc[n+]46)c3)c2)cc1 [Ir1, reference compound]",EQE (%) 1000 cd/m^2,[1],19.4%
same,Voltage (V) 1000 cd/m^2,[1],5.2 V
same,LD50 (h) 1000 cd/m^2,device type 1 (single emitter),190000 h
O=C1Oc2cc3cc(c2)OC(=O)c2c[c](c(-c4ccccn4)cc2-c2ccccc2)[Ir]([c]2cc1c(-c1ccccc1)cc2-c1ccccn1)[c]1cc(c(-c2ccccc2)cc1-c1ccccn1)C(=O)O3 [Ir100],EQE (%) 1000 cd/m^2,[1],21.1%
same,Voltage (V) 1000 cd/m^2,[1],5.1 V
same,LD50 (h) 1000 cd/m^2,device type 1 (single emitter),300000 h
O=C1Oc2ccc3[n+](c2)[Ir-3]245([c]6ccc(-c7cccc8c7oc7ccccc78)cc6-3)[c]3ccc(-c6cccc7c6oc6ccccc67)cc3-c3ccc(c[n+]32)OC(=O)c2cc1cc(c2)C(=O)Oc1ccc([n+]4c1)-c1cc(-c2cccc3c2oc2ccccc23)cc[c]15 [Ir103],EQE (%) 1000 cd/m^2,[1],21.1%
same,Voltage (V) 1000 cd/m^2,[1],5.1 V
same,LD50 (h) 1000 cd/m^2,device type 1 (single emitter),340000 h
same,EQE (%) 1000 cd/m^2,[2],19.6%
same,Voltage (V) 1000 cd/m^2,[2],5.6 V
same,LD50 (h) 1000 cd/m^2,[3],220000 h
CC(C)Cc1c2c[c]3c4c1ccc1ccc[n+](c14)[Ir-3]3145[c]3cc(c(CC(C)C)c6ccc7ccc[n+]1c7c36)OC(=O)c1cc(cc(c1)C(=O)Oc1c[c]4c3c(ccc4ccc[n+]5c43)c1CC(C)C)C(=O)O2 [Ir104],EQE (%) 1000 cd/m^2,[2],19.1%
same,Voltage (V) 1000 cd/m^2,[2],5.6 V
same,LD50 (h) 1000 cd/m^2,[3],220000 h
O=C1Oc2cc3c4[n+](c2)[Ir-3]256([c]7ccc(-c8ccccc8)c(c7-4)CC3)[c]3ccc(-c4ccccc4)c4c3-c3c(cc(c[n+]32)OC(=O)c2cc1cc(c2)C(=O)Oc1cc2c([n+]5c1)-c1[c]6ccc(-c3ccccc3)c1CC2)CC4 [Ir106],EQE (%) 1000 cd/m^2,[2],20.7%
same,Voltage (V) 1000 cd/m^2,[2],5.8 V
same,LD50 (h) 1000 cd/m^2,[3],260000 h
CN1C(=O)c2c[c]3c(cc2-c2cccc(-c4ccccc4)c2)-c2cccc[n+]2[Ir-3]3245[c]3cc(c(-c6cccc(-c7ccccc7)c6)cc3-c3cccc[n+]32)C(=O)N(C)c2cc1cc(c2)N(C)C(=O)c1c[c]4c(cc1-c1cccc(-c2ccccc2)c1)-c1cccc[n+]15 [Ir108],EQE (%) 1000 cd/m^2,[1],20.9%
same,Voltage (V) 1000 cd/m^2,[1],5.3 V
same,LD50 (h) 1000 cd/m^2,device type 1 (single emitter),290000 h
CN1C(=O)c2cc3cc(c2)C(=O)N(C)c2ccc4[n+](c2)[Ir-3]25([c]6ccc(-c7ccc(-c8nc(-c9ccccc9)nc(-c9ccccc9)n8)cc7)cc6-c6ccc1c[n+]62)([c]1ccc(-c2ccc(-c6nc(-c7ccccc7)nc(-c7ccccc7)n6)cc2)cc1-c1ccc(c[n+]15)N(C)C3=O)[c]1ccc(-c2ccc(-c3nc(-c5ccccc5)nc(-c5ccccc5)n3)cc2)cc1-4 [Ir111],EQE (%) 1000 cd/m^2,[1],19.5%
same,Voltage (V) 1000 cd/m^2,[1],5.0 V
same,LD50 (h) 1000 cd/m^2,device type 1 (single emitter),270000 h
CC(C)(C)CN1C(=O)c2cc3cc(c2)C(=O)N(CC(C)(C)C)c2cc4ccc5c(-c6ccnc7c6oc6ccccc67)cc[c]6c5c4[n+](c2)[Ir-3]624([c]5ccc(-c6ccnc7c6oc6ccccc67)c6ccc7cc1c[n+]2c7c56)[c]1ccc(-c2ccnc5c2oc2ccccc25)c2ccc5cc(c[n+]4c5c12)N(CC(C)(C)C)C3=O [Ir112],EQE (%) 1000 cd/m^2,[4],20.0%
same,Voltage (V) 1000 cd/m^2,[4],5.3 V
same,LD50 (h) 1000 cd/m^2,"device type 2, second emitter together with Ir(L315)",330000 h
Cc1ccc[n+]2c1-c1cc(-c3cccc(CC(C)C)c3)c3c[c]1[Ir-3]2145[c]2cc(c(-c6cccc(CC(C)C)c6)cc2-c2ccc6ccccc6[n+]21)-c1ccccc1-c1cc(cc(c1)-c1ccccc1-c1c[c]4c(cc1-c1cccc(CC(C)C)c1)-c1ccc2ccccc2[n+]15)C(=O)N3C [Ir114],EQE (%) 1000 cd/m^2,[5],19.6%
same,Voltage (V) 1000 cd/m^2,[5],5.3 V
same,LD50 (h) 1000 cd/m^2,[6],330000 h
CN1C(=O)c2cc3cc(c2)-c2ccccc2-c2ccc4[n+](c2)[Ir-3]25([c]6ccc(-c7ccc(-c8cccc9c8oc8ccccc89)cc7)cc6-c6ccc(c[n+]62)-c2ccccc2-3)([c]2ccc(-c3ccc(-c6cccc7c6oc6ccccc67)cc3)cc2-4)[c]2cc3c(cc2-c2ccc1c[n+]25)CCC3 [Ir118],EQE (%) 1000 cd/m^2,[1],21.5%
same,Voltage (V) 1000 cd/m^2,[1],5.2 V
same,LD50 (h) 1000 cd/m^2,device type 1 (single emitter),290000 h
O=C1Oc2ccc3[c](c2)[Ir-3]245([c]6cc(ccc6-c6ccc(-c7nc(-c8ccccc8)nc(-c8ccccc8)n7)c[n+]62)OC(=O)c2cc1cc(c2)C(=O)Oc1ccc([c]4c1)-c1ccc(-c2nc(-c4ccccc4)nc(-c4ccccc4)n2)c[n+]15)[n+]1cc(-c2nc(-c4ccccc4)nc(-c4ccccc4)n2)ccc1-3 [Ir121],EQE (%) 1000 cd/m^2,[5],18.4%
same,Voltage (V) 1000 cd/m^2,[5],5.3 V
same,LD50 (h) 1000 cd/m^2,[6],320000 h
CC(C)(C)c1ccc(-c2nc(-c3ccc(C(C)(C)C)cc3)nc(-c3ccc4[n+](c3)[Ir-3]3567[c]8cc(ccc8-4)OC(=O)c4cc(cc(c4)C(=O)Oc4ccc([c]3c4)-c3ccc(-c4nc(-c8ccc(C(C)(C)C)cc8)nc(-c8ccc(C(C)(C)C)cc8)n4)c[n+]35)C(=O)Oc3ccc([c]6c3)-c3ccc(-c4nc(-c5ccc(C(C)(C)C)cc5)nc(-c5ccc(C(C)(C)C)cc5)n4)c[n+]37)n2)cc1 [Ir122],EQE (%) 1000 cd/m^2,[5],18.2%
same,Voltage (V) 1000 cd/m^2,[5],5.4 V
same,LD50 (h) 1000 cd/m^2,[6],310000 h
O=C1Oc2ccc3[c](c2)[Ir-3]245([c]6cc(ccc6-c6ccc(-c7nc(-c8ccccc8)nc(-c8cccc(-c9ccccc9)c8)n7)c[n+]62)OC(=O)c2cc1cc(c2)C(=O)Oc1ccc([c]4c1)-c1ccc(-c2nc(-c4ccccc4)nc(-c4cccc(-c6ccccc6)c4)n2)c[n+]15)[n+]1cc(-c2nc(-c4ccccc4)nc(-c4cccc(-c5ccccc5)c4)n2)ccc1-3 [Ir123],EQE (%) 1000 cd/m^2,[5],18.4%
same,Voltage (V) 1000 cd/m^2,[5],5.3 V
same,LD50 (h) 1000 cd/m^2,[6],300000 h
CC(C)(C)c1nc(-c2ccc3[n+](c2)[Ir-3]2456[c]7cc(ccc7-3)OC(=O)c3cc(cc(c3)C(=O)Oc3ccc([c]2c3)-c2ccc(-c3nc(C(C)(C)C)nc(C(C)(C)C)n3)c[n+]24)C(=O)Oc2ccc([c]5c2)-c2ccc(-c3nc(C(C)(C)C)nc(C(C)(C)C)n3)c[n+]26)nc(C(C)(C)C)n1 [Ir124],EQE (%) 1000 cd/m^2,[5],18.5%
same,Voltage (V) 1000 cd/m^2,[5],5.3 V
same,LD50 (h) 1000 cd/m^2,[6],310000 h
O=C1Oc2c[c]3c(cc2-c2ccccc2)-c2ccc4c[n+]2[Ir-3]3256[c]3cc7c(-c8ccccc8)cc3-c3ccc(c[n+]32)-c2ccccc2-c2cc(cc(c2)-c2ccccc2-c2ccc([n+]5c2)-c2cc(-c3ccccc3)c(c[c]26)OC(=O)c2cc1cc(c2)C(=O)O7)-c1ccccc1-4 [Ir127],EQE (%) 1000 cd/m^2,[1],20.5%
same,Voltage (V) 1000 cd/m^2,[1],5.4 V
same,LD50 (h) 1000 cd/m^2,device type 1 (single emitter),380000 h
O=C1Oc2ccc3[n+](c2)[Ir-3]2456[c]7cc(c(-c8cccc(-c9cc(-c%10ccccc%10)cc(-c%10ccccc%10)c9)c8)cc7-3)-c3ccccc3-c3cc7cc(c3)-c3ccccc3-c3c[c]2c(cc3-c2cccc(-c3cc(-c8ccccc8)cc(-c8ccccc8)c3)c2)-c2ccc(c[n+]24)OC(=O)c2cc1cc(c2)C(=O)Oc1ccc([n+]5c1)-c1cc(-c2cccc(-c3cc(-c4ccccc4)cc(-c4ccccc4)c3)c2)c(c[c]16)-c1ccccc1-7 [Ir128],EQE (%) 1000 cd/m^2,[7],18.5%
same,Voltage (V) 1000 cd/m^2,[7],5.3 V
same,LD50 (h) 1000 cd/m^2,"device type 2, second emitter together with Ir111",300000 h
O=C1c2cc3cc(c2)C(=O)N(c2cccc(-c4cc(-c5ccccc5)cc(-c5ccccc5)c4)c2)c2ccc4[n+](c2)[Ir-3]2567[c]8cc(c(-c9cccc(-c%10cc(-c%11ccccc%11)cc(-c%11ccccc%11)c%10)c9)cc8-c8ccc(c[n+]82)N1c1cccc(-c2cc(-c8ccccc8)cc(-c8ccccc8)c2)c1)-c1ccccc1-c1cc(cc(c1)-c1ccccc1-c1c[c]5c-4cc1-c1cccc(-c2cc(-c4ccccc4)cc(-c4ccccc4)c2)c1)-c1ccccc1-c1c[c]6c(cc1-c1cccc(-c2cc(-c4ccccc4)cc(-c4ccccc4)c2)c1)-c1ccc(c[n+]17)N(c1cccc(-c2cc(-c4ccccc4)cc(-c4ccccc4)c2)c1)C3=O [Ir130],EQE (%) 1000 cd/m^2,[1],20.0%
same,Voltage (V) 1000 cd/m^2,[1],5.3 V
same,LD50 (h) 1000 cd/m^2,device type 1 (single emitter),350000 h
Cc1cc2[n+]3cc1/C=C\c1cc4cc(c1)/C=C\c1c[n+]5c(cc1C)-c1[c](ccc6c1oc1ccccc16)[Ir-3]351([c]3ccccc3-2)[c]2ccccc2-c2cc(C)c(c[n+]21)/C=C\4 [Ir(L18)],EQE (%) 1000 cd/m^2,[1],20.7%
same,Voltage (V) 1000 cd/m^2,[1],5.3 V
same,LD50 (h) 1000 cd/m^2,device type 1 (single emitter),270000 h
